Results are given in words; binding and its absence hold for the method and conditions named. Some binding calls cover weakened binding; strength is not graded here.
Columns and labels:
[1] = biological target: T1, PD-L1 protein (human, UniProt Q9NZQ7 19-238, limits assumed); test: ELISA: PD-L1 coated, FITC-labelled PPLC, HRP anti-FITC detection
T1 construct: Plate-coated recombinant protein; also called human PD-L1 protein

By UniProt entry, the sequences of proteins in these tests, tags left out. Where a name states a change or a piece, a line headed by the entry shows the natural chain unless it says otherwise.
UniProt Q9NZQ7: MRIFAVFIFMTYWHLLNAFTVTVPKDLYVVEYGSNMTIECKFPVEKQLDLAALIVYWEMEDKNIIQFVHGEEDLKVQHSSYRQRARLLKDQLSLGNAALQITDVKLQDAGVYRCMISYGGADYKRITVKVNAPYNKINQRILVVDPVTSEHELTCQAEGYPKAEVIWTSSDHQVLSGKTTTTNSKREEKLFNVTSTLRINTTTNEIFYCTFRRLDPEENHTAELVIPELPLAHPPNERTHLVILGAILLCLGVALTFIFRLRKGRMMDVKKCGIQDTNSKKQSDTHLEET

[2] = biological target: T1, PD-L1 protein; test: summary of FIG. 1 to FIG. 6 (ELISA)

- binding [1]: binds
- binding [2]: binds
Binder: VSVSHFQKVWVV (FITC fluorophore label (position of attachment not stated)) [PPLC peptide labeled with FITC]

Reference: patent US20210230286A1 (published 2021)
